## Screening data, single-dose tests

Chains of the proteins cited; added tags and fusions are not shown. Residues count along the entry.
UniProt P9WNZ1, whole entry: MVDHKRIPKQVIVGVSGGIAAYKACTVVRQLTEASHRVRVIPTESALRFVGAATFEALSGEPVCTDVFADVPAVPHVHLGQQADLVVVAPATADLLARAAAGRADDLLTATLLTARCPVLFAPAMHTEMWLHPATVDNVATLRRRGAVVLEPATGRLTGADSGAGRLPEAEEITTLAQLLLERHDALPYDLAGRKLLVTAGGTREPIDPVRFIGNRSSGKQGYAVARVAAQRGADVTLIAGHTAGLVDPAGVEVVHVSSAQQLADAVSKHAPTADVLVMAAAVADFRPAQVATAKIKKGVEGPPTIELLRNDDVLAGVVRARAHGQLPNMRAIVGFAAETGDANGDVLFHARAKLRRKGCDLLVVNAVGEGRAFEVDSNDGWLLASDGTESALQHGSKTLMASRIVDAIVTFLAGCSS
UniProt P9WFT3, whole entry: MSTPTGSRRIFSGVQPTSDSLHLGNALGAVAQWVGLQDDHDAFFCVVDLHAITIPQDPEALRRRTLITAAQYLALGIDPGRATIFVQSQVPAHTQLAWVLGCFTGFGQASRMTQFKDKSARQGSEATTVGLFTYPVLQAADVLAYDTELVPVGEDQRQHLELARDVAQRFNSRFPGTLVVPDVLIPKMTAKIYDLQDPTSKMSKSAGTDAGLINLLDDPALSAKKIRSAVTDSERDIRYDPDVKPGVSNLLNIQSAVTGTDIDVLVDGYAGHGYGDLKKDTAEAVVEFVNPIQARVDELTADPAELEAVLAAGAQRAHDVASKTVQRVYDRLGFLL
UniProt P9WPC5, whole entry: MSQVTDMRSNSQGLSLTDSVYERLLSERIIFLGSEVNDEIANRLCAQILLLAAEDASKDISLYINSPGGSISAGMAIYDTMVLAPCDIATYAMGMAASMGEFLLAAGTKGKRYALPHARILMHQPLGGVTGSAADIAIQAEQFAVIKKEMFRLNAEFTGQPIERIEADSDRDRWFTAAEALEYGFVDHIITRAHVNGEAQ
UniProt P9WPC3, whole entry partner: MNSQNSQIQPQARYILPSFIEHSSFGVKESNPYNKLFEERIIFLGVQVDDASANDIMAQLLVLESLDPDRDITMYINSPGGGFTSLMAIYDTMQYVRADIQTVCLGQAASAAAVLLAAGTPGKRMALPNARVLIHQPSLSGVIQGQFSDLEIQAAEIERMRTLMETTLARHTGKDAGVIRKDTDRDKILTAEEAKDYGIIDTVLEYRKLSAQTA
UniProt A4I591, 1-473: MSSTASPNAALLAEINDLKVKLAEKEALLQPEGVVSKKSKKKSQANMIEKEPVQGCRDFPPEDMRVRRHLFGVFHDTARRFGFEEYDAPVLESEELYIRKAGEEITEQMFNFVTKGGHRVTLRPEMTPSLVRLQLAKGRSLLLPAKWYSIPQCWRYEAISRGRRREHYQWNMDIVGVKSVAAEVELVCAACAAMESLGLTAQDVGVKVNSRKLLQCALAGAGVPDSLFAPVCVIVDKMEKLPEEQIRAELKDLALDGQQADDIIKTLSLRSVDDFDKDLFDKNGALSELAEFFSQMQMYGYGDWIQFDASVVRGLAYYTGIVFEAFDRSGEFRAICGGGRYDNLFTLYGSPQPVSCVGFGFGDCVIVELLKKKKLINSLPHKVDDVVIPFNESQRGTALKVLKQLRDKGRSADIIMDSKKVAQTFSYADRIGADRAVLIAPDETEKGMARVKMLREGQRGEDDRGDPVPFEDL
UniProt Q4DA54, 1-478: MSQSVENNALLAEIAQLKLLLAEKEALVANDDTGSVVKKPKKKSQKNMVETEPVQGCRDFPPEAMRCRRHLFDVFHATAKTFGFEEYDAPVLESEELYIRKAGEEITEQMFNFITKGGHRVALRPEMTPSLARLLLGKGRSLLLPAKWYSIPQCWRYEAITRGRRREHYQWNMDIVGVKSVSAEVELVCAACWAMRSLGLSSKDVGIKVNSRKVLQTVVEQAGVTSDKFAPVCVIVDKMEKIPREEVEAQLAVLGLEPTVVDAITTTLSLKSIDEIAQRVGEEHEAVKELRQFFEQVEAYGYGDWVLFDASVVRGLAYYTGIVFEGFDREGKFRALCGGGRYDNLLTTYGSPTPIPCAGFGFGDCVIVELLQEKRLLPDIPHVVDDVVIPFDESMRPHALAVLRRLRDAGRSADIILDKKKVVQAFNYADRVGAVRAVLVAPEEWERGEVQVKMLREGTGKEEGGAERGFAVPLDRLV

From ChEMBL document CHEMBL3988442, “University of Dundee, Small-Polar-MMV Screening Library” (2021).

Each number is a percent effect as filed. How 0% and 100% were set is not recorded. Most values in the screen are low, and negative values occur. Compounds were drawn at random from those tested, without regard to their results. A dash means the value is not listed here; it may have been measured.

CoaBC: 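Enzyme assay of CoaBC with a phosphate dye (Biomol Green) read at 650 nm. Target: Coenzyme A biosynthesis protein CoaBC, Mycobacterium tuberculosis (UniProt P9WNZ1). Compounds at 30 µM. Higher reads as stronger inhibition, judged from the few compounds that gave an IC50. Most strong results did not repeat in a second test. About 67,000 compounds were tested under these conditions; 0.06% (about 40) showed 50% or more at least once.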
MtTrpRS: 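Enzyme assay of tryptophanyl-tRNA synthetase; the read-out is not stated. Target: Tryptophan-tRNA ligase, Mycobacterium tuberculosis (UniProt P9WFT3). Concentration: 10 µM. Higher most likely means stronger inhibition; the record gives no direction and few retests gave an IC50. Of about 65,000 compounds tested this way, about 64 (0.098%) reached 50% or more in at least one test.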
ClpP1P2: 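ClpP1P2, Mycobacterium tuberculosis (UniProt P9WPC5 and UniProt P9WPC3). Protease assay of ClpP1P2, read by the AMC dye that it sets free. Concentration: 50 µM. Direction is inferred from only a few compounds that gave an IC50; most scored high, so higher reads as stronger inhibition. Most other retested compounds had strongly negative values. Size under these conditions: about 69,000 compounds, about 10 of them at 50% or above in at least one test.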
LiHisRS: 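Enzyme assay of histidyl-tRNA synthetase; the read-out is not stated. Target: Histidine-tRNA ligase, Leishmania infantum (UniProt A4I591). Compounds at 30 µM. The record gives no direction; compounds that gave an IC50 in retests scored well above the rest, so higher reads as stronger inhibition. The assay is labelled LdHisRS but filed under L. infantum. About 69,000 compounds were tested under these conditions; 0.6% (about 410) showed 50% or more at least once.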
TcHisRS: 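Histidine-tRNA ligase, Trypanosoma cruzi CL Brener (UniProt Q4DA54). Enzyme assay of histidyl-tRNA synthetase; the read-out is not stated. Concentration: 30 µM. Higher reads as stronger inhibition (inferred: compounds with an IC50 in retests scored well above the rest). About 69,000 compounds were tested under these conditions; 0.045% (about 31) showed 50% or more at least once.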

| SMILES | CoaBC | MtTrpRS | ClpP1P2 | LiHisRS | TcHisRS |
|---|---|---|---|---|---|
| `CC(=O)N1CCN(Cc2cccc3c2sc2ccccc23)CC(O)C1` (configuration not stated) | -7.108% | 2.716% | -10.85% | 17.78% | 2.381% |
| `COCCO[C@@H]1C[C@H]2CN(C(=O)c3cccnc3)CCN2C1` | 2.447% | -2.49% | -3.914% | 9.589% | 2.97% |
| `CS(=O)(=O)N1CCCC(Cc2cncc(Br)c2)CC1` (configuration not stated) | -0.4843% | - | 3.13% | 18.56% | 14.44% |
| `Cc1nc(C(C)C)sc1C(C)N(C)C(=O)c1ccc(=O)n(C)c1` (configuration not stated) | 0.6369% | 0.7157% | -8.015% | -1.036% | 6.077% |
| `COC(=O)CCN(C)C(=O)c1csc(Cc2ccccc2F)n1` | 3.236% | -2.574% | 2.411% | 1.176% | 4.02% |
| `CC(C)N(Cc1ccccn1)S(=O)(=O)N1CCCC1c1ccco1` (configuration not stated) | 8.842% | -4.161% | -36.98% | 7.339% | 6.706% |
| `CC(=O)NC1CCc2ccc(S(=O)(=O)NCc3ncccc3C)cc21` (configuration not stated) | 2.67% | 15.29% | -15% | 8.571% | 1.149% |
| `CN(C)c1nc(NCc2cccnc2N)ncc1F` | 9.89% | 3.649% | 2.191% | 14.29% | 6.186% |
| `CNc1nc(CNC(=O)Nc2cccc(-n3ccc(C)n3)c2)cs1` | -1.37% | 4.644% | -26.98% | 18.35% | 3.79% |
| `CN(C)c1cc(C2CCCN(C(=O)c3noc4c3CCCC4)C2)ccn1` (configuration not stated) | -7.767% | -3.171% | -10.87% | 10% | 8.046% |
| `CS(=O)(=O)N1CCC(NC(=O)COc2ccc(Cl)c(Cl)c2)CC1` | -5.27% | 0.2201% | 7.01% | 9.375% | 4.183% |
| `Cc1ccc(CN2CCC3(CC2)CN(C(=O)c2cnccn2)CCO3)o1` | -2.589% | -4.699% | -11.61% | 13.89% | 5.714% |
| `CCOCC1CN(Cc2ccsc2)Cc2cnn(C)c21` (configuration not stated) | -9.877% | -8.258% | -18.25% | 6.944% | 2.804% |
| `Cc1nc(C)n(CC2CCCN2Cc2nc(-c3ccsc3)no2)n1` (configuration not stated) | 5.45% | 23.67% | -29.23% | 21.43% | 5.917% |
| `Cc1nc(-c2cccc(C(=O)O)c2)c[nH]1` | -1.238% | -4.495% | -9.648% | -4% | -3.614% |
| `c1cncc(OCc2n[nH]c3c2CN(Cc2cccs2)C3)c1` | 3.941% | -4.334% | -4.36% | 8% | 7.216% |
| `CC(C)(C)c1noc(CCCC(=O)N2CCNC(=O)CC2)n1` | 4.049% | -1.891% | 13.47% | 3.922% | 1.235% |
| `Cc1nnnn1-c1cc(NCc2cccc(C#N)c2)ccc1F` | 3.944% | -1.188% | -10.24% | 19.51% | 7.212% |
| `Fc1cccnc1N1CCOCC2(CCCN(c3nncs3)C2)C1` (configuration not stated) | -3.361% | -2.79% | 3.242% | 7.273% | 4.132% |
| `CC1(C)CC(CC(=O)N2CC(C)(C)[C@@](C)(O)C2)CC(C)(C)N1` | 12.81% | 19.89% | -6.141% | 12% | 0.578% |
| `c1csc(CN(Cc2ccsc2)CC2CCCO2)n1` (configuration not stated) | -1.284% | 2.352% | -0.4419% | 8.333% | 3.478% |
| `C[C@@H]1CN(C(=O)c2nc3ccc(Cl)cn3c2-c2ncc[nH]2)C[C@H](C)O1` | 3.767% | 3.698% | -7.8% | 28.26% | 9.901% |
| `O=C1CC(c2cccc(O)c2)c2c(c(C(=O)O)cn2-c2ccccc2)N1` (configuration not stated) | -0.9421% | 11.06% | 7.218% | 38.83% | 2.732% |
| `Cc1cccc(CO[C@@H]2C[C@H]3CN(C(=O)c4cnccn4)CCN3C2)n1` | 0.8157% | -0.4016% | -9.975% | 12.33% | 2.97% |
| `Cc1noc(C(C)SCc2ccccn2)n1` (configuration not stated) | 0.3802% | -0.2987% | -10.12% | 8.861% | 2.155% |
| `O=c1[nH]cnc2c1CCN(S(=O)(=O)c1ccc(OC(F)(F)F)cc1)C2` | 7.438% | 2.056% | -10.91% | 20.41% | 10% |
| `Cc1cnc(CNC(=O)[C@@]23CCO[C@@H]2CCN(C2CCCC2)C3)cn1` | 0.4938% | - | 2.124% | 11.82% | 4.233% |
| `CCC(C(=O)NCc1ccncc1)N(c1ccccc1)S(C)(=O)=O` (configuration not stated) | 2.314% | 4.608% | -5.585% | 7.292% | 6.704% |
| `CCC1CCCCN1S(=O)(=O)c1c(N)noc1C` (configuration not stated) | 8.855% | 5.542% | -0.7059% | 5.714% | 2.041% |
| `Cn1cc(CN2CCOC3(CCCN(c4cccc(F)c4)C3)C2)cn1` (configuration not stated) | 3.337% | -7.354% | -6.751% | 19% | 5.102% |
| `CCCn1ccnc1-c1cccc(NC(=O)C2CCCOC2)c1` (configuration not stated) | 2.39% | 1.905% | -9.01% | 14.16% | 5.357% |
| `COc1c(C2CCCN2CC(=O)Nc2ccncc2)c(C)nn1C` (configuration not stated) | -9.197% | 15.54% | -36.1% | 14.91% | 2.616% |
| `Cc1ccc(NC(=O)N(CCO)Cc2ccsc2)cc1` | -0.5741% | 1.864% | -12.41% | 8.85% | 5.263% |
| `CN(C)C(=O)c1cccc(C2CNCCN2C)c1` (configuration not stated) | 1.196% | -4.167% | -10.64% | 12.95% | 4.981% |
| `O=C1COC2(CCN(Cc3ccoc3)CC2)CN1` | 4.261% | 1.936% | 3.089% | 15.38% | 6.098% |
| `COc1cccc(C(=O)N2C[C@@H](c3ccccc3)[C@@H]3NCCCC[C@@H]32)c1` | 7.54% | -1.412% | -9.298% | 10.34% | 4.563% |
| `CCc1nc(C2CCCN2Cc2nc(C3CC3)no2)no1` (configuration not stated) | 6.364% | 2.237% | -16.97% | 4.717% | 0% |
| `CN(C)CCNC(=O)c1ccc(OC2CCN(CC3CC3)CC2)c(Cl)c1` | -43.78% | 5.189% | 11.35% | 8.197% | -9.302% |
| `CC(=O)N1CCCC2(CCN(C(=O)c3nn(C)c4ccccc34)CC2)C1` | -1.527% | -2.506% | 4.182% | 19.42% | 3.883% |
| `Cc1noc(C)c1CCNc1nccc(CCC(F)(F)F)n1` | 5.011% | -2.434% | -12.43% | 0% | 5.464% |
| `CNC(=O)[C@H]1C[C@@H]2CN(C(=O)c3ccc(C)nc3)C[C@@H]2N1C(C)C` | 6.897% | -2.371% | -2.201% | 16% | 6.186% |
| `Cn1nccc1-c1cncc(C2CCCN(S(C)(=O)=O)C2)n1` (configuration not stated) | 8.717% | -3.851% | -6.23% | 13.99% | 5.085% |
| `Cc1ccc(-c2nnc([C@H]3CCN(C4CCC4)C3)o2)cc1` | -0.2208% | 2.049% | 3.179% | -9.459% | 5.435% |
| `Cc1ccc(C)c(OCC(O)CN(C)CC(=O)Nc2cc(C)on2)c1` (configuration not stated) | 3.306% | 0.4421% | 16.41% | 12% | -1.734% |
| `CCCc1cncnc1N1CCC2(CCC(=O)N(CCCO)C2)CC1` | -0.1196% | -3.051% | -3.329% | 9.836% | 4.721% |
| `Cc1ccc(C(C(=O)NCCc2nc(C)cc(C)n2)N(C)C)cc1` (configuration not stated) | 6.909% | -1.481% | 3.028% | 14.52% | 5.102% |
| `Cc1cc(CN2CCN(Cc3cnc4c(c3)c(C)nn4C)CC2)on1` | 2.417% | 2.376% | 3.036% | 21.95% | 7.212% |
| `CC[C@@H]1N(CC2CCOCC2)CCC[C@]12CCC(=O)N2` | - | -3.991% | 1.716% | 17.24% | 3.797% |
| `Cc1cnc(CN2CCC(N(C)Cc3nnc(C)n3C)C2)cn1` (configuration not stated) | 6.009% | -2.726% | 1.256% | 9.836% | 0% |
| `COCCN(Cc1ccco1)Cc1nc(-c2ccc(C)c(F)c2)no1` | -1.463% | 1.283% | 0.4245% | 2.521% | 8.824% |
| `O=C(c1ccc(Cl)cn1)N1CCC(COCc2ccccc2)C1` (configuration not stated) | -5.372% | 14.8% | -9.57% | -8% | 4.891% |
| `CCC(C)NC(=O)c1cc(Br)c2c(c1)OCCO2` (configuration not stated) | 2.35% | -7.688% | -17.71% | 12.07% | 5.085% |
| `O=C(C1CCC2(CCN(CC3CC3)CC2)O1)N1CCCC1` (configuration not stated) | 3.053% | -1.698% | -14.86% | 7.767% | -0.9709% |
| `COCCNC(=O)C(C)S(=O)(=O)c1ccc(OC)cc1` (configuration not stated) | 1.984% | -5.972% | 12.37% | 6.25% | 3.448% |
| `Cc1nn(C)c(C)c1CNCc1ccc(N2CCOCC2)nc1` | 2.35% | -0.4873% | 11.58% | 21.62% | 1.88% |
| `Cc1cnn(CCNCc2ccccc2Oc2cccnc2)c1` | 6.005% | 1.462% | 9.805% | 5.405% | 9.398% |
| `CC(C)(C)OC(=O)N1CCC(C(=O)NCc2ccccc2)C1` (configuration not stated) | -15.38% | -0.5025% | -9.738% | 1.786% | 5.263% |